# Results published in publication doi:10.1101/570622.
# Results are given in words; binding and its absence hold for the method and conditions named. Binding seen in cells or lysates may run through a third protein. Some results given as binding are weak or reduced against the parent protein; the word gives no strength. For part of these data: Tags and fused reporters may be left off the sequences shown.
# T1: Septin 2 (Sept2) coupled to enhanced green fluorescent protein (EGFP) (rat) (UniProt Q91Y81)
# T1 sequence: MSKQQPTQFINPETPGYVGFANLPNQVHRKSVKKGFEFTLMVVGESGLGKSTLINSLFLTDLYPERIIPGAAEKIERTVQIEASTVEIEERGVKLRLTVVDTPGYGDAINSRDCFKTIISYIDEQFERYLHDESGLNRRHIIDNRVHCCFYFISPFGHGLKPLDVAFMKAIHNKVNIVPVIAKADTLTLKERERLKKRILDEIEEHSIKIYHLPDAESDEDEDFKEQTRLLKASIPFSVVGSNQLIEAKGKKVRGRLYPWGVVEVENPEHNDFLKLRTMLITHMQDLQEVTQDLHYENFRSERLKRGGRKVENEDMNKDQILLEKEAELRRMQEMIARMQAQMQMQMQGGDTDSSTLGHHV
# T2: Septin 2 (Sept2), wild type (rat (endogenous in NRK49F)) (UniProt Q91Y81)
# T2 sequence: T1 sequence
# B1: Sept9 (protein, UniProt Q9QZR6 1-564)
# chain: MERDRITALKRSFEVEEIEPPNSTPPRRVQTPLLRATVASSSQKFQDLGVKNSEPAARLVDTLSQRSPKPSLRRVDLAGAKAPEPMSRRTELSIDISSKQVESTASTPGPSRFGLKRAEVLGHKTPEPVPRRTEITIVKPQESGLRRVETPASKAPEGSAMPVTDAAPKRVEIQVPKPAEAPNCPLPPQTLENSEAPMSQLQSRLEPRPPVTEVPYRNQEDSEVAPSCVVDMADNPRDAMLKQAPVSRNEKAPVDFGYVGIDSILEQMRRKAMKQGFEFNIMVVGQSGLGKSTLINTLFKSKISRKSVQPISEERIPKTIEIKSITHDIEEKGVRMKLTVIDTPGFGDHINNENCWQPIMKFINDQYEKYLQEEVNINRKKRIPDTRVHCCLYFIPATGHSLRPLDIEFMKRLSKVVNIVPVIAKADTLTLEERVYFKQRITSDLLSNGIDVYPQKEFDEAEDRLVNEKFREMIPFAVVGSDHEYQVNGKRILGRKTKWGTIEVENTTHCEFAYLRDLLIRTHMQNIKDITSNIHFEAYRVKRLNEGNSAMANGIEKEPETQEM
# B2: Sept7 (protein, UniProt Q9WVC0 1-436)
# chain: MSVSARSAAAEERSVNCSTMAQPKNLEGYVGFANLPNQVYRKSVKRGFEFTLMVVGESGLGKSTLINSLFLTDLYSPEYPGPSHRIKKTVQVEQSKVLIKEGGVQLLLTIVDTPGFGDAVDNSNCWQPVIDYIDSKFEDYLNAESRVNRRQMPDNRVQCCLYFIAPSGHGLKPLDIEFMKRLHEKVNIIPLIAKADTLTPEECQQFKKQIMKEIQGHKIKIYEFPETDDEEENKLVKKIKDRLPLAVVGSNTIIEVNGKRVRGRQYPWGVAEVENGEHCDFTILRNMLIRTHMQDLKDVTNNVHYENYRSRKLAAVTYNGVDNNKNKGQLTKSPLAQMEEERREHVAKMKKMEMEMEQVFEMKVKEKVQKLKDSEAELQRRHEQMKKNLEAQHKELEEKRRQFEEEKANWEAQQRILEQQNSSRTLEKNKKKGKIF
# B3: Sept8 (protein, UniProt B0BNF1 1-442)
# chain: MAATDLERISNAEPEPRSLSLGGHVGFDSLPDQLVSKSVTQGFSFNILCVGETGIGKSTLMNTFFNTTFETEEASHHEECVRLRPQTYDLQESNVHLKLTIVDAVGFGDQINKDDSYRPIVDYIDTQFENYLQEELKIRRSLFDYHDTRIHVCLYFITPTGHSLKSLDLVTMKKLDSKVNIIPIIAKADTISKSELHKFKIKIMGELVSNGVQIYQFPTDDEAVAEINAVMNAHLPFAVVGSTEEVKVGNKLVRARQYPWGVVQVENENHCDFVKLREMLIRVNMEDLREQTHSRHYELYRRCKLEEMGFQDSDGDSQPFSLQETYEAKRKEFLSELQRKEEEMRQMFVNKVKETELELKEKERELHEKFEHLKRIHQEEKRKVEEKRRELEEETNAFNCRKAAMEALQSQALHATSQQPLRKDKDKKKVGGWSSIYSVTIP
# B4: Sept11 (protein, UniProt B3GNI6 1-431)
# chain: MAVAVGRPSNEELRNLSLSGHVGFDSLPDQLVNKSTSQGFCFNILCVGETGIGKSTLMDTLFNTKFESDPATHNEPGVRLKARSYELQESNVRLKLTIVDTVGFGDQINKDDSYKPIVEYIDAQFEAYLQEELKIKRSLFNYHDTRIHACLYFIAPTGHSLKSLDLVTMKKLDSKVNIIPIIAKADTIAKNELHKFKSKIMSELVSNGVQIYQFPTDEETVAEINATMSVHLPFAVVGSTEEVKIGNKMAKARQYPWGVVQVENENHCDFVKLREMLIRVNMEDLREQTHTRHYELYRRCKLEEMGFKDTDPDSKPFSLQETYEAKRNEFLGELQKKEEEMRQMFVMRVKEKEAELKEAEKELHEKFDLLKRTHQEEKKKVEDKKKELEEEVSNFQKKKAAAQLLQSQAQQSGAQQTKKDKDKKNPWLCTE
# Target: T1, Septin 2 (Sept2) coupled to enhanced green fluorescent protein (EGFP) (rat)
# Assay: co-IP
row,binding,Binder
1,binds,B1
2,binds,B2
3,binds,B3
4,binds,B4

# Target: T2, Septin 2 (Sept2), wild type (rat (endogenous in NRK49F))
# Assay: co-IP
row,binding,Binder
1,binds,B1
2,binds,B2
3,binds,B3
4,binds,B4

# Target: T1, Septin 2 (Sept2) coupled to enhanced green fluorescent protein (EGFP) (rat)
# Assay: co-IP
# Remark: another data set of the same source
row,binding,Binder
1,binds,B1
2,binds,B2
3,binds,B3
4,binds,B4
